One sequence from patent publication US6774222, “Molecular computing elements, gates and flip-flops” (The United States of America as represented by the …) can be followed below.

Construct, isoform or probe ends are uncertain for at least one entry. Where a protein sequence is shown, tags need not be part of it.

The data set concerns the target T1, Fis (Factor for Inversion Stimulation) (Escherichia coli) (UniProt P0A6R3).
T1 sequence (looked up, limits assumed): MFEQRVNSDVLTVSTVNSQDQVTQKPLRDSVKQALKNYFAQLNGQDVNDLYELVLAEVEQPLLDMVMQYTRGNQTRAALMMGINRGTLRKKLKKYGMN
In words: footprint. Particulars: CITED footprints from two groups protect one, the other and both sites; purified recombinant protein.

“GTTATACACAACTCAAAAACTGAACAACAGTTGTTCTTTGGATAAC (double strand) [E. coli oriC Fis sites region]”: the binding result is given as “binds”.
